From PubChem BioAssay AID1439 (NMMLSC, 2008)
Screen size: about 220,000 compounds; about 770 (0.35%) were called active. Inconclusive means that the source gave no clear call. Such entries were picked first, then a sample of the others. Rule as the data show it: active = binding response below about 49% or above about 150%; inconclusive = no clear call, values can overlap the other calls; inactive = in between.

Chains of the proteins cited; added tags and fusions are not shown.
UniProt P09471, whole entry, looked up: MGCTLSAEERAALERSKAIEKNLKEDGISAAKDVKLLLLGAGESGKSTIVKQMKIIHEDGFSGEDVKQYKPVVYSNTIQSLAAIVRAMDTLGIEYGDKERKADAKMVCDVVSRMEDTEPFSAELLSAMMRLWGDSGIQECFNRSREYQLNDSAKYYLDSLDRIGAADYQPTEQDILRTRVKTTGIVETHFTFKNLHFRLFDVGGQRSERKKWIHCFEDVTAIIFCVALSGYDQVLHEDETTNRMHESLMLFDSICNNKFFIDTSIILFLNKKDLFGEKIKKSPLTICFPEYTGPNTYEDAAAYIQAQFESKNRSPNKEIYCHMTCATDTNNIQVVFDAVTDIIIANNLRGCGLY

Target: Guanine nucleotide-binding protein G(o) subunit alpha (Homo sapiens) (UniProt P09471)
Experiment: compounds changing RGS7 association with Galphao – biochemical, multiplexed bead flow cytometry, primary screen (AID 1439);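 also: fluorescent Galphao held in activated GDP-AlF4 state binding bead-coupled RGS7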
Conditions: at 10 µM, actives lie on both sides

| SMILES | binding response (% of control) |
| --- | --- |
| O=[N+]([O-])c1cc(-c2ccc([As](=O)(O)O)cc2)ccc1[As](=O)(O)O | inconclusive: 54.9% |
| CCC(C)n1c(O)c(/C=N/Nc2nc3c(c(=O)n(C)c(=O)n3C)n2C)c(=O)[nH]c1=S (centres undefined) | inconclusive: 85.3% |
| CCCCCCN1CCN(c2ccccc2Cl)CC1 | inconclusive: 81.8% |
| Cc1nn(Cc2c(Cl)cccc2Cl)c(Cl)c1C(=O)O | inconclusive: 93.3% |
| CCN1CC2([N+](=O)[O-])CC=C(Cl)C([N+](=O)[O-])(C1)C2 (centres undefined) | inactive: 100% |
| Cc1cc(OC(=O)N(C)C)nc(SCc2c(Cl)cccc2Cl)n1 | inconclusive: 64.6% |
| COc1ccc(-n2c(O)c(/C(C)=N/Nc3ccccc3)c(=O)[nH]c2=O)cc1 | inconclusive: 110% |
| CSc1nnc(OC(=O)N(C)C)n1-c1ccc(Cl)cc1 | inconclusive: 99.7% |
| CN1C(=O)NC(=O)/C(=C\C=C\c2ccccc2[N+](=O)[O-])C1=O | inconclusive: 71.6% |
| CC1(CCl)CN1S(=O)(=O)c1ccccc1 (centres undefined) | inconclusive: 6.98% |
| O=c1[nH]c(=S)n(-c2ccc(Cl)cc2)c(O)c1/C=N/N1CCOCC1 | inconclusive: 124% |
| CCCCCCC[n+]1ccc(-c2cc[n+](CCCCCCC)cc2)cc1 | inactive: 107% |
| COc1cc(C(CN)CC(=O)O)ccc1O (centres undefined) | inconclusive: 87.5% |
| O=C1NC(=O)C(=Cc2csc3ccccc23)C(=O)N1 | inconclusive: 170% |
| CC(C)=CCOc1c2occc2cc2ccc(=O)oc12 | inactive: 99.1% |
| CCCCn1c(O)c(C(C)=NCc2cccnc2)c(=O)[nH]c1=O | inconclusive: 109% |
| CCC(=NCc1cccnc1)c1c(O)n(-c2ccccc2C)c(=O)[nH]c1=O | inconclusive: 95.2% |
| Cn1c(O)c(C=NCCCCCCCCCCC(=O)O)c(=O)n(C)c1=O | inconclusive: 108% |
| C=CCn1c(O)c(C(CC)=Nc2ccc(C(=O)O)cc2)c(=O)[nH]c1=O | inconclusive: 101% |
| CN1C(=O)C(=Cc2sc(=O)n(-c3ccccc3)c2N(C)C)C(=O)N(C)C1=O | inconclusive: 104% |
| CCC1(C)CC(CCNCc2ccc(N(C)C)cc2)(c2ccc(F)cc2)CCO1 (centres undefined) | inconclusive: 22.3% |
| CCCCC(=O)N/N=C/c1c(O)n(Cc2ccc(F)cc2)c(=O)[nH]c1=O | inconclusive: 98.4% |
| CCN1CCN(c2ccc([N+](=O)[O-])cc2C(=O)OC)CC1 | inactive: 98.7% |

| SMILES | binding response (% of control) |
| --- | --- |
| O=C(Nc1cccc(Cl)c1)c1c(O)c2c(n(Cc3ccccc3)c1=O)CCCC2 | inactive: 105% |
| CC/C(=N\NC(N)=O)c1c(O)[nH]c(=O)[nH]c1=O | inconclusive: 108% |
| O=C1/C(=C\c2cccnc2)N2CCC1CC2 | inconclusive: 180% |
| CN(C)CC1Oc2ccccc2OC1(O)c1ccccc1 (centres undefined) | inconclusive: 116% |
| CN1CCN(Cc2ccccc2Sc2ccccc2)CC1 | inactive: 98.2% |
| CC(=NCc1cccnc1)c1c(O)n(-c2ccc(Cl)cc2)c(=O)[nH]c1=O | inconclusive: 60.8% |
| CN(C)C(=O)Oc1cccc(NC(=O)c2ccccc2C(F)(F)F)c1 | inconclusive: 45% |
| O=C1NC(=O)N(CCNc2ncc(C(F)(F)F)cc2Cl)C(=O)C1Cc1ccc(Cl)cc1 (centres undefined) | inactive: 97.5% |
| NC1=NC(c2cccnc2)n2c(nc3ccccc32)N1 (centres undefined) | inconclusive: 118% |
| CCCNC1=C(C)C(=O)C2=C(C1=O)C(COC(N)=O)[C@]1(OC)C3NC3CN21 (some centres undefined) | inconclusive: 92.9% |
| C=CCn1c(O)c(C(CC)=NCC2CCCO2)c(=O)[nH]c1=O (centres undefined) | inconclusive: 469% |
| NCCCN1CCN(c2ccccc2)CC1 | inconclusive: 109% |
| CC1CC(OC(=O)c2ccccc2)(c2ccccc2)C(C)CN1C (centres undefined) | inconclusive: 56.8% |
| C=CCn1c(O)c(C(C)=NCCc2ccccc2)c(=O)[nH]c1=O | inactive: 98.9% |
| CCOC(=O)C1=Nc2ccccc2/C1=C\c1c(O)n(C)c(=O)n(C)c1=O | inconclusive: 71.2% |
| N#C/C(=C(/O)c1ccc(S(=O)(=O)N(CCCl)CCCl)cc1)c1nc2ccccc2[nH]1 | inconclusive: 111% |
| CC1Oc2cc3c(-c4c(O)cc(O)c5c(O)c6c(cc45)OC(C)C(C)C6=O)c(O)cc(O)c3c(O)c2C(=O)C1C (centres undefined) | inconclusive: 308% |
| O=C(c1cc(F)ccc1F)C1CCCN(Cc2ccc3nonc3c2)C1 (centres undefined) | inconclusive: 92.7% |
| COc1ccc(CN2C(=O)NC(=O)/C(=C/c3ccc([N+](=O)[O-])s3)C2=O)cc1 | inconclusive: -39% |
| CCOc1cccc(=NC2CCCCC2)c2c(C)n(C)c(C)c12 | inconclusive: 85.8% |
| Cc1ccccc1OP(N)(=O)Oc1ccccc1C | inconclusive: 108% |
| CN1CCc2nc3sc(C(=O)NC4CC4)c(N)c3cc2C1 | inconclusive: 113% |
| O=C(N/N=C/c1c(O)n(C2CC2)c(=S)[nH]c1=O)c1ccccc1O | inactive: 99.8% |

| SMILES | binding response (% of control) |
| --- | --- |
| CCCCC(CC)COCCCN=Cc1c(O)[nH]c(=S)[nH]c1=O (centres undefined) | inconclusive: 97.2% |
| CC(=O)Nc1cccc([As](=O)(c2cccc(NC(C)=O)c2)c2cccc(NC(C)=O)c2)c1 | inconclusive: 105% |
| CCCC(C)n1[nH]c(=O)c2c1NC(=O)CSC2c1ccccc1 (centres undefined) | inconclusive: 72.9% |
| O=P1(Oc2ccccc2)C[C@@H](O)[C@@H](O)[C@H](COCc2ccccc2)O1 (some centres undefined) | inconclusive: 94.1% |
| C=CCn1c(O)c(C(CC)=Nc2ccc(NC(C)=O)cc2)c(=O)[nH]c1=O | inconclusive: 60.7% |
| O=c1[nH]c(=S)[nH]c(O)c1N=Nc1cc2c(cc1[N+](=O)[O-])OCO2 | inconclusive: 76.4% |
| CN1CN(c2cccc([N+](=O)[O-])c2)CN=C1N[N+](=O)[O-] | inconclusive: 68.8% |
| Cn1c(O)c(C(=Nc2ccc(F)cc2)c2ccccc2)c(=O)n(C)c1=O | inconclusive: 35% |
| C/C(=N\N1CCCCCC1)c1c(O)n(C)c(=O)n(C)c1=O | inconclusive: 85.6% |
| C[C@H]1CC[C@H]2NCCN[C@H]2C1 | inconclusive: -21.5% |
| CCOP(=O)(C#Cc1ccccc1)C(O)c1ccc(Br)cc1 (centres undefined) | inconclusive: 112% |
| O=c1[nH]c(=S)n(C2CC2)c(O)c1C=NCc1ccc(F)cc1 | inconclusive: 99.9% |
| Cc1ccc(-n2c(C)nc3ccccc3c2=O)c(C)c1 | inconclusive: 107% |
| CC(Cc1ccccc1)NCC(=O)Nc1cc(N(C)C)nc2ccccc12 (centres undefined) | inconclusive: 76.8% |
| O=c1[nH]c(=O)n(CCc2ccccc2)c(O)c1C=NC1CC1 | inconclusive: 97.5% |
| CC1(C)CC(=O)C(C=NCCN2CCN(C(=O)Cc3ccc(Cl)cc3)CC2)=C(O)C1 | inactive: 92.9% |
| CCCCC1(CN2CCCC2=O)C(=O)NC(=O)NC1=O | inactive: 96% |
| CCOP(=O)(OCC)C(O)c1ccccc1 (centres undefined) | inconclusive: -2.32% |
| COc1cccc(-c2nc3ccc(N4CCN(C)CC4)cc3[nH]2)c1 | inconclusive: 75.9% |
| COc1ccccc1-n1c(O)c(C=Nc2c(C)n(C)n(-c3ccccc3)c2=O)c(=O)[nH]c1=O | inactive: 102% |
| CCCCn1c(N)c(C(=O)OCCOC)c2nc3ccccc3nc21 | inconclusive: 79.9% |
| Cc1cccc(NP(=O)(Oc2ccccc2F)Oc2ccccc2F)c1 | inactive: 100% |
| c1ccc(-c2cc(-c3ccccc3)[n+](-c3ccccc3)c(-c3ccccc3)c2)cc1 | inconclusive: 95.3% |

Three structures out of the list, sorted by SMILES length, rising.

| SMILES | binding response (% of control) |
| --- | --- |
| CCOP(=O)(C#Cc1ccccc1)C(O)c1ccc(Br)cc1 (centres undefined) | inconclusive: 112% |
| C/C(=N\N1CCCCCC1)c1c(O)n(C)c(=O)n(C)c1=O | inconclusive: 85.6% |
| CC(Cc1ccccc1)NCC(=O)Nc1cc(N(C)C)nc2ccccc12 (centres undefined) | inconclusive: 76.8% |

Next part.

| SMILES | binding response (% of control) |
| --- | --- |
| COP(=O)(OC)C(NC(C)=O)C(Cl)(Cl)Cl (centres undefined) | inactive: 103% |
| NS(=O)(=O)c1ccc(N2CCNCC2)cc1 | inconclusive: 104% |
| COc1cc(C[C@@H](C)N)c(OC)cc1I | inconclusive: 49.9% |
| C=CCn1c(O)c(C(CC)=NCc2ccc3c(c2)OCO3)c(=O)[nH]c1=O | inconclusive: 99% |
| O=C1NC(c2cccnc2)Nc2sc3c(c21)CCCC3 (centres undefined) | inactive: 94.2% |
| CCN1CC2C3CCC(C)(O3)C2C1 (centres undefined) | inconclusive: 51% |
| COc1ccc(-n2c(O)c(C=NCc3ccc4c(c3)OCO4)c(=O)[nH]c2=O)cc1 | inconclusive: 92.8% |
| CCc1ccc(N2C(=O)NC(=O)/C(=C\C=C\c3ccco3)C2=O)cc1 | inconclusive: 22.9% |
| CC(C)COC(=O)c1ccccc1C(=O)OCC(C)C | inconclusive: 151% |
| CN1CCN(CC(=O)Nc2ccc([N+](=O)[O-])cc2C(=O)c2ccccc2)CC1 | inactive: 101% |
| COc1ccc(-n2c(O)c(C(C)=Nc3ccc4c(c3)CCC4)c(=O)[nH]c2=O)cc1 | inconclusive: 109% |
| CC(C)=CCc1c(O)cc2c(c1O)C(=O)CC(c1ccc(O)cc1)O2 (centres undefined) | inconclusive: 114% |
| CC12CN3CCN(CC(C3)/C1=N/NC(N)=O)C2 | inconclusive: 107% |
| COc1ccccc1/C=N/N=C(/N)N[N+](=O)[O-] | inactive: 112% |
| C/C(CC(c1ccccc1)c1c(O)c2ccccc2oc1=O)=N\Nc1ccc([N+](=O)[O-])cc1[N+](=O)[O-] (centres undefined) | inconclusive: 103% |
| Cc1ccccc1-n1c(-c2ccoc2)nc2ccccc2c1=O | inconclusive: 92.1% |
| COC(=O)C1C(O)C(C)C(O)C(C)/C=C\C=C(/C)C(=O)Nc2c(C)c(OC(C)=O)c3c(c2O)C(=O)C(C)=C2OCOC(=C23)/C(C)=C/C(C)(O)C(O)C(C)C1O (centres undefined) | inconclusive: 40.3% |
| Nc1ccc2nonc2c1[N+](=O)[O-] | inconclusive: 93.6% |
| c1cc2c(cc1[C@H]1OC[C@H]3[C@@H]1CO[C@@H]3c1ccc3c(c1)OCO3)OCO2 | inconclusive: 102% |
| NC(=O)c1ccc(C(=O)Nc2ccc([As](=O)(O)O)cc2)cc1 | inconclusive: 112% |

6 entries from above in another layout.
SMILES,binding response (% of control)
O=[N+]([O-])c1cc(-c2ccc([As](=O)(O)O)cc2)ccc1[As](=O)(O)O,inconclusive: 54.9%
CCC(C)n1c(O)c(/C=N/Nc2nc3c(c(=O)n(C)c(=O)n3C)n2C)c(=O)[nH]c1=S (centres undefined),inconclusive: 85.3%
CCCCCCN1CCN(c2ccccc2Cl)CC1,inconclusive: 81.8%
Cc1nn(Cc2c(Cl)cccc2Cl)c(Cl)c1C(=O)O,inconclusive: 93.3%
CCN1CC2([N+](=O)[O-])CC=C(Cl)C([N+](=O)[O-])(C1)C2 (centres undefined),inactive: 100%
Cc1cc(OC(=O)N(C)C)nc(SCc2c(Cl)cccc2Cl)n1,inconclusive: 64.6%
